Assay results from patent US20240197725A1, “METHOD AND COMPOSITION FOR THE PREVENTION OR TREATMENT OF OSTEOARTHRITIS” (Rhode Island Hospital, priority 2021, published 2024).
For at least one compound, name, drawing or mass did not settle the structure.

System: articular cartilage
Assay: Knee joint articular cartilage histology and gene expression in treated mice
Type: in vivo, adult nude mice
[1] = 40 mg/kg i.p. 21 days, articular cartilage, vs vehicle
[2] = 40 mg/kg i.p. 21 days, knee joint frozen sections, RNAscope

For `Cc1ncsc1-c1ccc([C@H](C)NC(=O)[C@@H]2C[C@@H](O)CN2C(=O)[C@@H](NC(=O)CCCCCCCCN2CCN(C(=O)CCC(=O)Nc3cccc(Sc4ncc(N5CCC(C)(N)CC5)nc4N)c3Cl)CC2)C(C)(C)C)cc1` [SHP-D26, (2S,4R)-1-((S)-2-(9-(4-(4-((3-((3-amino-5-(4-amino-4-methylpiperidin-1-yl)pyrazin-2-yl)thio)-2-chlorophenyl)amino)-4-oxobutanoyl)piperazin-1-yl)nonanamido)-3,3-dimethylbutanoyl)-4-hydroxy-N-((S)-1-(4-(4-methylthiazol-5-yl)phenyl)ethyl)pyrrolidine-2-carboxamide], the Admts5 [1] was “undetectable or comparable”, the Mmp13 [1] was “undetectable or comparable” and the Sox9 [1] was “undetectable or comparable”. The “abundance of Acan mRNA” value [2] was “increased the abundance”, the “abundance of Col2a1 mRNA” value [2] was “increased the abundance” and the “abundance of SOX9 protein” value (40 mg/kg i.p. 21 days, knee joint frozen sections, immunostaining) was “increased the abundance”. The articular cartilage thickness (40 mg/kg once daily i.p. 21 days, Safranin O, n=5, vs vehicle) was “slight but significant increase”.
